Experimental data published in PubChem BioAssay AID504444 (National Center for Advancing Translational Sciences (NCATS), 2011).
Out of some 360,000 compounds screened, about 7,500 (2.1%) were called active. Inconclusive results, whose numbers are uncertain, are shown with a selection of clear calls. The call rests on the fitted dose curve; in most records, active means well fitted inhibition curve with a large enough effect; inconclusive means small, poorly fitted or top-dose-only effect, or effect the other way; inactive means flat fitted curve, though single readings scatter. Potencies beside an inconclusive call are fits to weak or partial responses and may not hold up.

test: Nrf2 qHTS screen for inhibitors; conditions: A549 ARE-Fluc reporter, luciferase luminescence, 18-24 h; activity change, negative = inhibition: at 46 µM (top of the series); further: nearly all actives have a fitted effect of over 60% in size
Procedure, shortened: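 Quantitative HTS in A549 cells stably bearing an antioxidant response element-firefly luciferase construct. Inhibition of Nrf2-driven transcription was scored by luminescence after 18-24 h of compound exposure at 37 °C.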
On the % scale 0 is the no-effect control and ±100 the full control effect; potency means the concentration at half of the fitted maximal effect.

Q: With `CCSc1nnc(NC(=O)c2cccc(S(=O)(=O)N(C)c3ccc(C)cc3)c2)s1` as the compound, how does the “activity change, negative = inhibition” value read?
A: inactive: -6.91%

Q: With `CCOC(=O)C1CC(=O)c2cc(OC)c(OC)cc2C1` (stereo not given) as the compound, how does the Potency read?
A: inconclusive: 7.31 µM [falling, partial curve, poor fit]

Q: For `COCCCNC(=O)c1[nH]c2cc(OC)ccc2c1Sc1ccc(C)cc1`, which Potency is on record?
A: inconclusive: 14.6 µM [falling, single point]

Q: With `CC(=O)c1c(OC(=O)c2ccccc2)c2ccccc2n1C` as the compound, how does the Potency read?
A: inconclusive: 10.3 µM [falling, partial curve]

Q: With `C/C(=N\Nc1ncnc2sc(C)c(C)c12)c1ccccn1` as the compound, how does the Potency read?
A: inconclusive: 29.1 µM [activator, partial curve]

Q: Which Potency does the source give for `COc1ccc(-c2coc3cc(OC4OC(CO)C(O)C(O)C4O)cc(O)c3c2=O)cc1` (stereo not given) here?
A: inconclusive: 18.4 µM [activator, partial curve]

Q: For `C[C@H](NC(=O)c1nc[nH]c1C(=O)NC(c1ccccc1)c1ccccc1)C(=O)OC(C)(C)C`, which Potency is on record?
A: inconclusive: 32.6 µM [falling, single point]

Q: With `CCOC(=O)c1cccc(NC(=O)CSc2nnc(C)n2Cc2ccccc2)c1` as the compound, how does the Potency read?
A: inconclusive: 29.1 µM [activator, partial curve, poor fit]

Q: With `COc1ccc(C2Nc3ccccc3C(=O)N2CCc2ccc(Cl)cc2Cl)cc1COc1ccc(NC(C)=O)cc1` (stereo not given) as the compound, how does the “activity change, negative = inhibition” value read?
A: inactive: -15.6%

Q: With `CCOC(=O)N1CCC(NC(=O)c2cc(C(=O)Nc3ccc(S(=O)(=O)N4CCCCC4)cc3)ccc2CO)CC1` as the compound, how does the Potency read?
A: inconclusive: 6.51 µM [falling, full curve, poor fit]

Q: Which “activity change, negative = inhibition” value does the source give for `CCn1cc(C(=O)NCCc2ccc(Cl)cc2)c(=O)c2cc(S(=O)(=O)N3CCc4ccccc4C3)ccc21` here?
A: inactive: 16.7%

Q: Which Potency does the source give for `CCOC(=O)C1CCN(C(=O)Cn2nc(C)c3c(C)n(-c4ccccc4)nc3c2=O)CC1` here?
A: inconclusive: 6.51 µM [activator, partial curve, poor fit]

Q: With `COc1ccc(-c2csc(NC(=O)c3ccccc3NS(=O)(=O)c3ccc(F)c(F)c3)n2)cc1` as the compound, how does the Potency read?
A: active: 2.91 µM

Q: For `Cc1ccc(-n2nnc(-c3nsc(NC(=O)c4ccccc4C)n3)c2C)cc1Cl`, which Potency is on record?
A: inconclusive: 29.1 µM [activator, single point]

Q: Which “activity change, negative = inhibition” value does the source give for `C[C@H](NC(=O)[C@H](Cc1ccccc1)NC(=O)c1cc2cc(Cl)ccc2n1C)C(=O)O` here?
A: inactive: -2.19%

Q: With `CCOc1ccc(Nc2c(S(=O)(=O)c3ccc(Cl)cc3)cnc3ccc(OC)cc23)cc1` as the compound, how does the Potency read?
A: inconclusive: 18.4 µM [falling, single point]

Q: With `COCCN(Cc1cc2ccc(C)c(C)c2nc1Cl)C(=O)N1CCOCC1` as the compound, how does the “activity change, negative = inhibition” value read?
A: inactive: -7.65%

Q: For `O=C(NC1CCCCCC1)c1ccc(-n2cnnc2)cc1`, which Potency is on record?
A: inconclusive: 29.1 µM [activator, partial curve, poor fit]

Q: With `CNc1nc(-c2ccc3c(c2)CCN3S(=O)(=O)c2ccccc2)c(C)s1` as the compound, how does the Potency read?
A: inconclusive: 20.6 µM [falling, single point]

Q: With `COc1cccc(CN2C(=O)N(c3ccc(C)cc3)C(=O)C2CC(=O)Nc2cc(OC)cc(OC)c2)c1` (stereo not given) as the compound, how does the “activity change, negative = inhibition” value read?
A: inactive: -29.3%

Q: Which Potency does the source give for `O=C(NCC12CC3CC(CC(C3)C1)C2)c1nn2c(c1Cl)NC(c1ccco1)CC2C(F)(F)F` (stereo not given) here?
A: inconclusive: 23.1 µM [falling, single point]

Q: For `CCOC(=O)c1ccc([N+](=O)[O-])c(CS(=O)(=O)c2ccc(Cl)cc2)c1`, which Potency is on record?
A: inconclusive: 0.0046 µM [falling, full curve, poor fit]

Q: For `CCOC(=O)CC(NC(=O)CCc1c(C)nc2c(-c3ccccc3)c(C)nn2c1C)c1ccc(C)cc1` (stereo not given), which Potency is on record?
A: inconclusive: 18.4 µM [falling, single point]

Q: With `CCN(C(=O)CSc1nnc(-c2ccco2)n1C)c1c(N)n(Cc2ccccc2)c(=O)[nH]c1=O` as the compound, how does the “activity change, negative = inhibition” value read?
A: inactive: 4.1%

Q: With `COc1ccc(Cl)cc1S(=O)(=O)N1CCCC(C(=O)N2CCCC2)C1` (stereo not given) as the compound, how does the Potency read?
A: inconclusive: 8.2 µM [falling, partial curve, poor fit]

Q: With `CC1CCCCN1C(=O)CSc1nnc(-c2ccco2)o1` (stereo not given) as the compound, how does the Potency read?
A: inconclusive: 2.91 µM [activator, full curve]

Q: For `CC1CCN(S(=O)(=O)c2cccc(C(=O)NC3CCCC3)c2)CC1`, which Potency is on record?
A: inconclusive: 13 µM [falling, partial curve]

Q: For `O=C(Nc1ccnn1C1CCN(C/C=C/c2ccccc2)CC1)C1CCCC1`, which Potency is on record?
A: inconclusive: 0.58 µM [activator, full curve, poor fit]

Q: For `Cc1cc2occ(CC(=O)N(C)CC(=O)Nc3ccc(F)cc3)c2cc1C`, which Potency is on record?
A: inconclusive: 29.1 µM [falling, single point]

Q: For `COC(=O)Cc1c(-c2[nH]c3ccccc3c2CC(=O)OC)[nH]c2ccccc12`, which “activity change, negative = inhibition” value is on record?
A: inactive: 5.69%

Q: For `CCC(=O)N1CCc2cc(S(=O)(=O)CCC(=O)N3CCN(c4ccccc4Cl)CC3)ccc21`, which Potency is on record?
A: inconclusive: 2.06 µM [falling, partial curve, poor fit]

Q: For `CC(C)c1ccc(CNc2ncc(Br)cn2)cc1`, which Potency is on record?
A: inconclusive: 9.2 µM [activator, partial curve]

Q: With `CCOC(=O)c1nc2cc3n(c(CC(C)C)c-2c1C)CC(C)=C3C` as the compound, how does the “activity change, negative = inhibition” value read?
A: inactive: -1.58%

Q: Which Potency does the source give for `CC(C)c1ccc2nc(NC(=O)C3CC3)sc2c1` here?
A: inconclusive: 5.8 µM [activator, full curve]

Q: With `CS(=O)(=O)N(CC(=O)Nc1ccccc1C(=O)N1CCOCC1)c1ccc(Cl)cc1` as the compound, how does the “activity change, negative = inhibition” value read?
A: inactive: 1.48%

Q: With `C=CCOc1cccc(C2C(C(=O)c3ccco3)=C(O)C(=O)N2Cc2ccncc2)c1` (stereo not given) as the compound, how does the “activity change, negative = inhibition” value read?
A: inactive: 11.2%

Q: Which Potency does the source give for `CC(C)OC(=O)c1cc(NC(=S)Nc2ccc([N+](=O)[O-])cc2)cc(C(=O)OC(C)C)c1` here?
A: active: 16.4 µM

Q: With `Cc1nn2c(NCCCn3ccnc3)cc(C(C)C)nc2c1-c1ccccc1` as the compound, how does the “activity change, negative = inhibition” value read?
A: inactive: -12.1%

Q: With `O=C(NCCn1cc(SCc2cccc(F)c2)c2ccccc21)c1cccc(C(F)(F)F)c1` as the compound, how does the Potency read?
A: inconclusive: 23.1 µM [falling, single point]

Q: For `O=C1CCCC/C1=C/Nc1cccc(C(F)(F)F)c1`, which Potency is on record?
A: inconclusive: 25.9 µM [activator, partial curve, poor fit]

Q: Which Potency does the source give for `C=CCNC(=O)C(C#N)c1nc2ccccc2nc1N1CCCCCC1` (stereo not given) here?
A: inconclusive: 13 µM [falling, partial curve, poor fit]

Q: Which “activity change, negative = inhibition” value does the source give for `C[C@H](CO)N1C[C@H](C)[C@@H](CN(C)S(=O)(=O)c2cccs2)Oc2ccc(NC(=O)Nc3ccc4c(c3)OCO4)cc2C1=O` here?
A: inactive: -27.3%

Q: Which Potency does the source give for `Cc1nc(-c2cccs2)sc1C(=O)O` here?
A: inconclusive: 0.116 µM [falling, full curve, poor fit]

Q: Which Potency does the source give for `Cc1cc(C)c(-c2csc(NC(=O)C3=COCCO3)n2)c(C)c1` here?
A: inconclusive: 16.4 µM [falling, single point]

Q: With `Cc1cccc(NC(=O)CSc2nc3ccc(NC(=O)COc4ccc(Cl)cc4)cc3s2)c1` as the compound, how does the Potency read?
A: inconclusive: 6.51 µM [falling, partial curve]

Q: With `COc1ccc(NC(=O)c2ccccc2O)c(OC)c1` as the compound, how does the Potency read?
A: inconclusive: 6.51 µM [activator, partial curve]

Q: For `Cc1nn(-c2ccccc2)c2c1N(CC(=O)NCc1ccc(N(C)C)cc1)C(=O)CS2`, which Potency is on record?
A: inconclusive: 29.1 µM [falling, single point]

Q: For `CCOC(=O)C1=C(N)Oc2ccc3ccccc3c2C1c1cccc(O)c1` (stereo not given), which “activity change, negative = inhibition” value is on record?
A: inactive: 13.4%

Q: Which Potency does the source give for `COc1ccc(CNC(=O)COc2ccc(C(=O)c3ccc(F)cc3)cc2)cc1` here?
A: inconclusive: 5.8 µM [activator, single point]

Q: Which Potency does the source give for `CN1C(=O)C(CC(=O)NCC2CCCCC2)SC1=Nc1ccccc1` (stereo not given) here?
A: inconclusive: 29.1 µM [falling, single point]

Q: With `COc1ccc(C2CC(c3ccc(OC)cc3)n3nc(NC(=O)c4cccs4)nc3N2)cc1` (stereo not given) as the compound, how does the Potency read?
A: inconclusive: 29.1 µM [falling, single point]

Q: With `O=C(CSc1nc(-c2cccs2)cc(C(F)(F)F)n1)NCc1ccccc1` as the compound, how does the “activity change, negative = inhibition” value read?
A: inactive: -20.6%

Q: With `COc1ccc(CCC(=O)NCC2CCCCC2)cc1OC` as the compound, how does the Potency read?
A: inconclusive: 23.1 µM [activator, partial curve, poor fit]

Q: Which Potency does the source give for `Cc1ccccc1OCc1nc2ccccc2c(=O)n1/N=C/c1c[nH]c2ccccc12` here?
A: inconclusive: 29.1 µM [falling, single point]

Q: For `Cc1sc2ncnc(N/N=C/c3cccc(O)c3)c2c1C`, which “activity change, negative = inhibition” value is on record?
A: inactive: -4.45%

Q: For `O=C(c1ccccc1NS(=O)(=O)c1cccs1)N1CCOCC1`, which Potency is on record?
A: inconclusive: 1.46 µM [falling, partial curve]

Q: For `COc1ccc(-c2nc3ccc(NS(C)(=O)=O)cc3o2)cc1`, which Potency is on record?
A: inconclusive: 2.31 µM [activator, full curve, poor fit]

Q: For `O=C(c1ccc(S(=O)(=O)NCc2ccco2)cc1)N1CCN(c2ccccc2)CC1`, which Potency is on record?
A: inconclusive: 32.6 µM [falling, single point]

Q: For `CCCCN1C(=O)C2ON(c3ccccc3C)C(c3ccco3)C2C1=O` (stereo not given), which Potency is on record?
A: inconclusive: 0.0073 µM [falling, full curve, poor fit]

Q: With `COc1ccc(N(Cc2cc3cc(OC)ccc3[nH]c2=O)S(=O)(=O)c2ccc(NC(C)=O)cc2)cc1` as the compound, how does the Potency read?
A: inconclusive: 25.9 µM [falling, partial curve, poor fit]

Q: For `CCN(CC)c1ccc(NC(=O)Nc2cccc3ccccc23)cc1`, which “activity change, negative = inhibition” value is on record?
A: inactive: -8.66%

Q: With `CC(C)c1ccc(NC(=O)C(c2ccccc2)N(Cc2ccco2)C(=O)CC2NC(=O)NC2=O)cc1` (stereo not given) as the compound, how does the “activity change, negative = inhibition” value read?
A: inactive: -23.2%

Q: For `CCC(C)(C)C(=O)Nc1ncc(S(=O)(=O)c2ccc([N+](=O)[O-])cc2)s1`, which Potency is on record?
A: inconclusive: 7.31 µM [falling, partial curve, poor fit]

Q: Which “activity change, negative = inhibition” value does the source give for `COCCn1c(-c2ccc(Cl)cc2Cl)nc2c(c(=O)c3ccccc3n2C)c1=O` here?
A: inactive: 4.86%

Q: For `Cc1sc(NC(=O)COc2ccccc2)c(C#N)c1C`, which Potency is on record?
A: inconclusive: 5.17 µM [activator, full curve]
